Source: PubChem BioAssay AID1259308 (NCATS, 2017)
Screen: 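Genes whose loss raises luciferase production in HEK293 cells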 (primary screen). Cells: human HEK293 embryonic kidney cells stably expressing firefly luciferase (HEK-CMV-Luc2-Hygro). Knock-down reagent: single siRNA against human genes, 0.8 pmol siRNA per well. Duration: 72 h. Read-out: 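Luciferase light (ONE-Glo) measured on one replicate plate set and viability (CellTiter-Glo) on the other, scaled to a negative control siRNA, with robust z-scores and luciferase per cell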. Reading the numbers: total luciferase, z-score and total luciferase, % of control: higher = more reporter protein produced; luciferase per cell, z-score: higher = more reporter output per viable cell; viable cells, % of control: higher = more viable cells. Rule for the call: 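An siRNA counts as active if its total luciferase robust z-score exceeds 3; genes with two or more such siRNAs out of three were retested with fresh siRNAs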. Meaning of the calls: active = raised luciferase; inactive = no rise.
The deposit covers about 59,000 reagents; this is an unselected part. Over the whole deposit, about 1,510 (2.6%) are marked active. 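Calls use total luciferase alone and ignore viability, so some active siRNAs may act by altering cell number.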 Reagents against one gene are numbered here.

| gene knocked down | reagent no. | total luciferase, z-score | total luciferase, % of control | luciferase per cell, z-score | viable cells, % of control | Outcome |
| --- | --- | --- | --- | --- | --- | --- |
| QTRT1 | 1 | -1.38 | 54.4 | -1.71 | 95.3 | inactive |
| QTRT1 | 2 | 0.00814 | 82 | -0.319 | 99.7 | inactive |
| QTRT1 | 3 | -0.0873 | 80.2 | -0.991 | 116 | inactive |
| DSTYK | 1 | -0.586 | 70.2 | -0.35 | 86 | inactive |
| DSTYK | 2 | -0.092 | 80.1 | -0.196 | 94.2 | inactive |
| DSTYK | 3 | -0.0428 | 81 | -0.729 | 110 | inactive |
| GRIK2 | 1 | -0.23 | 77.3 | -0.89 | 109 | inactive |
| GRIK2 | 2 | 0.629 | 94.4 | 1 | 81 | inactive |
| GRIK2 | 3 | 2.19 | 125 | 1.4 | 96.9 | inactive |
| AGAP1P1 | 1 | -1.34 | 55.2 | -1.27 | 86.3 | inactive |
| AGAP1P1 | 2 | -0.333 | 75.3 | -0.485 | 95.6 | inactive |
| AGAP1P1 | 3 | -0.0642 | 80.6 | -0.268 | 96.7 | inactive |
| GSTM4 | 1 | 0.334 | 88.5 | -0.321 | 108 | inactive |
| GSTM4 | 2 | -2.17 | 38.6 | -3.75 | 116 | inactive |
| GSTM4 | 3 | 0.14 | 84.7 | 1.42 | 65.2 | inactive |

Copied from the list:
Under “total luciferase, % of control”, GRIK2 #2 shows 94.4
For “viable cells, % of control”, GRIK2 #1 has 109
QTRT1 #2, total luciferase, % of control = 82

Additional records:
| gene knocked down | reagent no. | total luciferase, z-score | total luciferase, % of control | luciferase per cell, z-score | viable cells, % of control | Outcome |
| --- | --- | --- | --- | --- | --- | --- |
| OLFM2 | 1 | -0.589 | 70.2 | -0.384 | 86.7 | inactive |
| OLFM2 | 2 | -1.05 | 61 | -1.59 | 104 | inactive |
| OLFM2 | 3 | 0.308 | 88 | 0.813 | 79.4 | inactive |
| SLC9C2 | 1 | -1.26 | 56.9 | -1.43 | 92.5 | inactive |
| SLC9C2 | 2 | -0.539 | 71.2 | -0.89 | 101 | inactive |
| SLC9C2 | 3 | 0.848 | 98.7 | 1.39 | 76.6 | inactive |
| APBA2 | 1 | -0.713 | 67.7 | -0.855 | 94.8 | inactive |
| APBA2 | 2 | 0.0409 | 82.7 | -0.335 | 101 | inactive |
| APBA2 | 3 | -0.693 | 68.1 | -0.596 | 89 | inactive |
